The text below walks through data of patent publication US10265413B2, “High molecular weight biodegradable gelatin-doxorubicin conjugate” (priority 2014, dated 2019).

In general, IC50 refers to the concentration needed to halve the response being measured.

In one assay the test system is PC3 cells. Kind of assay: Cell growth inhibition (AlamarBlue), PC3. In kind it is cell-based. The conditions noted are these: Homo sapiens, PC-3; PC3, 72 hours, DOX equivalent concentration. On the procedure: (§1) MCF7 cells were maintained in EMEM growth media with 10% fetal bovine serum and 0.01 mg/mL recombinant human insulin. Growth inhibition experiments were performed in the above media with the addition of penicillin at 100 units/mL and streptomycin at 0.1 mg/mL. PC3 cells were maintained in RPMI 1640 with 10% fetal bovine serum with penicillin and streptomycin at the above concentrations for growth inhibition experiments. Cells were grown in 75 cm^2 flasks at 37° C. with 5% CO2. They were routinely passed once achieving 85% confluence by rinsing 3 times with 5 mL Dulbecco's PBS and detached using 2 mL of trypsin/EDTA solution. Cells were resuspended in fresh growth medium and seeded at either 1×10^5 cells (PC3) or 1×10^6 cells (MCF7). […]
(§2) Cell growth was determined by AlamarBlue assay following incubation. […] Initial fluorescence at 530/590 nm (F0) was measured using a Perkin Elmer Victor3 1420 bench top plate reader. The percent growth value was obtained by dividing the fluorescence for the drug wells by the fluorescence for the control wells after subtracting the fluorescence from the 24 hr control plate from both. […]
(§3) The % growth vs. Log [DOX] equivalent concentration (μM) data was fit to a four parameter logistic curve reporting a minimum, maximum, Hillslope, and IC50. Standard error of the IC50 values were determined from the program output. […]

Another assay has as its system MCF7 cells. Briefly: Cell growth inhibition (AlamarBlue), MCF7. It counts as cell-based. The conditions noted are these: Homo sapiens; MCF7, 72 hours, DOX equivalent concentration. As to the method:
as §1, §2, §3
(Alamar Blue is a resazurin reagent that responds to reducing activity.)

As for `COc1cccc2c1C(=O)c1c(O)c3c(c(O)c1C2=O)C[C@@](O)(C(=O)CO)C[C@@H]3O[C@H]1C[C@H](N)[C@H](O)[C@H](C)O1` [DOX, (7S,9S)-7-[(2R,4S,5S,6S)-4-amino-5-hydroxy-6-methyloxan-2-yl]oxy-6,9,11-trihydroxy-9-(2-hydroxyacetyl)-4-methoxy-8,10-dihydro-7H-tetracene-5,12-dione], the IC50 in the assay on PC3 cells stood at 90 ± 38 nM; in the assay on MCF7 cells, 336 ± 251 nM.
